# The supplement of paper PMC4635364
# Counter-ions that a name gives are not always drawn. This is one part of the list. This data set is noisy: repeats of one test often differ as much as different tests do.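 ReNCell VM, a human fetal ventral-midbrain neural progenitor line, was differentiated without mitogens. Blinded raters scored images stained for doublecortin (early neurons) or tyrosine hydroxylase (dopaminergic neurons) against untreated wells (0 = no change). Scores were averaged across repeats and both raters, and compounds averaging 2 or more were selected as hits for retesting.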
# Columns and labels:
# ReNCell VM [1] = assay: neuronal differentiation score (DCX+ cell fraction vs untreated, manual image score) (score (-3 to 3)); higher = more neuronal differentiation; conditions: 2 uM, 2 weeks
# ReNCell VM [2] = assay: dopaminergic neuron differentiation score (TH+ cell fraction vs untreated, manual image score) (score (0 to 3)); higher = more TH+ dopaminergic neuron differentiation; conditions: 2 uM, 4 weeks, BDNF 10 ng/ml + GDNF 10 ng/ml
compound,measurement,setting,value
COc1cc(C=CC(=O)c2c(O)cc(C)oc2=O)ccc1O,neuronal differentiation score,ReNCell VM [1]; library: Natural,inactive: -3
same,dopaminergic neuron differentiation score,ReNCell VM [2]; library: Natural,inactive: 0
O=C(O)c1ccccc1Cc1c(Oc2ccccc2)oc2cc(O)ccc2c1=O [7-hydroxy-2-phenoxy-3-(2-carboxybenzyl)chromone],neuronal differentiation score,ReNCell VM [1]; library: Natural,inactive: 0
same,dopaminergic neuron differentiation score,ReNCell VM [2]; library: Natural,inactive: 0
Cc1cc2nc3c(=O)[nH]c(=O)nc-3n(C[C@H](O)[C@H](O)[C@H](O)CO)c2cc1C,neuronal differentiation score,ReNCell VM [1]; library: Spectrum,inactive: 0
same,dopaminergic neuron differentiation score,ReNCell VM [2]; library: Spectrum,inactive: 0
CCc1cc(C(C)=O)c(O)cc1OCCCCCC(C)(C)c1nn[nH]n1,neuronal differentiation score,ReNCell VM [1]; library: Tocriscreen,inactive: 0
same,dopaminergic neuron differentiation score,ReNCell VM [2]; library: Tocriscreen,inactive: 0
COc1cc(O)ccc1C(C)=O,neuronal differentiation score,ReNCell VM [1]; library: Spectrum,inactive: 0
same,dopaminergic neuron differentiation score,ReNCell VM [2]; library: Spectrum,inactive: 0
CC(Cc1ccccc1)(NC(=O)CN)c1ccccc1 (configuration not stated) [Remacemide hydrochloride],neuronal differentiation score,ReNCell VM [1]; library: Tocriscreen,inactive: 0
same,dopaminergic neuron differentiation score,ReNCell VM [2]; library: Tocriscreen,inactive: 0
COc1ccc(CC(C)NCC(O)c2ccc(O)c(NC=O)c2)cc1 (configuration not stated) [Formoterol fumarate],neuronal differentiation score,ReNCell VM [1]; library: Prestwick,inactive: 0
same,dopaminergic neuron differentiation score,ReNCell VM [2]; library: Prestwick,inactive: 0
COc1ccc2cc(C(C)C(=O)O)ccc2c1 (configuration not stated),neuronal differentiation score,ReNCell VM [1]; library: Spectrum,inactive: -1
same,dopaminergic neuron differentiation score,ReNCell VM [2]; library: Spectrum,inactive: 0
O=C(O)c1cc2cc(F)ccc2[nH]1 [5-Fluoroindole-2-carboxylic acid],neuronal differentiation score,ReNCell VM [1]; library: LOPAC,inactive: 0
same,dopaminergic neuron differentiation score,ReNCell VM [2]; library: LOPAC,inactive: 0
CCOc1nc2cccc(C(=O)OCc3oc(=O)oc3C)c2n1Cc1ccc(-c2ccccc2-c2noc(=O)[nH]2)cc1,neuronal differentiation score,ReNCell VM [1]; library: Spectrum,inactive: 0
same,dopaminergic neuron differentiation score,ReNCell VM [2]; library: Spectrum,inactive: 0
C/C(=C(\CCOP(=O)(O)O)SC(=O)c1ccccc1)N(C=O)Cc1cnc(C)nc1N,neuronal differentiation score,ReNCell VM [1]; library: Spectrum,inactive: 0
same,dopaminergic neuron differentiation score,ReNCell VM [2]; library: Spectrum,inactive: 0
COc1ccccc1Oc1coc2cc(O)ccc2c1=O [7-hydroxy-3-(2-methoxy-phenoxy)-chromen-4-one],neuronal differentiation score,ReNCell VM [1]; library: Natural,inactive: 0
same,dopaminergic neuron differentiation score,ReNCell VM [2]; library: Natural,inactive: 0
Cc1cc2c(s1)Nc1ccccc1N=C2N1CCN(C)CC1,neuronal differentiation score,ReNCell VM [1]; library: Spectrum,inactive: 1
same,dopaminergic neuron differentiation score,ReNCell VM [2]; library: Spectrum,inactive: 0
"O=c1cc(-c2cc3ccccc3oc2=O)c2ccc(O)cc2o1 [7'-Hydroxy-[3,4']bichromenyl-2,2'-dione]",neuronal differentiation score,ReNCell VM [1]; library: Natural,inactive: 0
same,dopaminergic neuron differentiation score,ReNCell VM [2]; library: Natural,inactive: 0
C=CC1=C(C)/C(=C/c2[nH]c(Cc3[nH]c(/C=C4\NC(=O)C(C)=C4C=C)c(C)c3CCC(=O)O)c(CCC(=O)O)c2C)NC1=O,neuronal differentiation score,ReNCell VM [1]; library: Spectrum,inactive: 0
same,dopaminergic neuron differentiation score,ReNCell VM [2]; library: Spectrum,inactive: 0
O=C(/C=C/c1ccc(O)c(O)c1)O[C@@H]1C[C@@](OC(=O)/C=C/c2ccc(O)c(O)c2)(C(=O)O)C[C@@H](O)[C@@H]1O [Cynarin],neuronal differentiation score,ReNCell VM [1]; library: Phytochemical,inactive: 0
same,dopaminergic neuron differentiation score,ReNCell VM [2]; library: Phytochemical,inactive: 0
Nc1nc(=O)c2[nH]c(=O)cnc2[nH]1,neuronal differentiation score,ReNCell VM [1]; library: Spectrum,inactive: 0
same,dopaminergic neuron differentiation score,ReNCell VM [2]; library: Spectrum,inactive: 0
O=c1cc(-c2ccccc2)oc2c(O)c(O)ccc12,neuronal differentiation score,ReNCell VM [1]; library: Spectrum,inactive: 0
same,dopaminergic neuron differentiation score,ReNCell VM [2]; library: Spectrum,inactive: 0
CN/C(=N\c1ccc(C2=NNC(=O)CC2C)cc1)NC#N (configuration not stated),neuronal differentiation score,ReNCell VM [1]; library: LOPAC,inactive: 0
same,dopaminergic neuron differentiation score,ReNCell VM [2]; library: LOPAC,inactive: 0
"CCCn1c(=O)c2[nH]c(-c3ccc(S(=O)(=O)O)cc3)nc2n(CCC)c1=O [1,3-Dipropyl-8-p-sulfophenylxanthine]",neuronal differentiation score,ReNCell VM [1]; library: LOPAC,inactive: 0
same,dopaminergic neuron differentiation score,ReNCell VM [2]; library: LOPAC,inactive: 0
O=S(=O)(NCCNC/C=C/c1ccc(Br)cc1)c1cccc2cnccc12 [H 89 dihydrochloride],neuronal differentiation score,ReNCell VM [1]; library: Tocriscreen,inactive: 0
same,dopaminergic neuron differentiation score,ReNCell VM [2]; library: Tocriscreen,inactive: 0
N[C@@H](Cc1ccc(O)c(O)c1)C(=O)O [Levodopa],neuronal differentiation score,ReNCell VM [1]; library: Prestwick,inactive: 0
same,dopaminergic neuron differentiation score,ReNCell VM [2]; library: Prestwick,inactive: 0
COc1cc(C(=O)NS(=O)(=O)c2ccccc2C)ccc1Cc1cn(C)c2ccc(NC(=O)OC3CCCC3)cc12 [Zafirlukast],neuronal differentiation score,ReNCell VM [1]; library: Prestwick,inactive: 0
same,dopaminergic neuron differentiation score,ReNCell VM [2]; library: Prestwick,inactive: 0
CC[C@H](c1ccc(O)cc1)[C@@H](CC)c1ccc(O)cc1,neuronal differentiation score,ReNCell VM [1]; library: Spectrum,inactive: 0
same,dopaminergic neuron differentiation score,ReNCell VM [2]; library: Spectrum,inactive: 0
COc1ccc2nc3cc(Cl)ccc3c(Nc3cc(CN4CCCC4)c(O)c(CN4CCCC4)c3)c2n1,neuronal differentiation score,ReNCell VM [1]; library: Spectrum,inactive: 0
same,dopaminergic neuron differentiation score,ReNCell VM [2]; library: Spectrum,inactive: 0
CCCCOc1ccc(CC(=O)NO)cc1 [Bufexamac],neuronal differentiation score,ReNCell VM [1]; library: Prestwick,inactive: 0
same,dopaminergic neuron differentiation score,ReNCell VM [2]; library: Prestwick,inactive: 0
NCCCCCC(=O)O,neuronal differentiation score,ReNCell VM [1]; library: Spectrum,inactive: 0
same,dopaminergic neuron differentiation score,ReNCell VM [2]; library: Spectrum,inactive: 0
Cc1nc(N=Nc2cc([N+](=O)[O-])ccc2Cl)c(COP(=O)(O)O)c(C=O)c1O [MRS 2211 sodium salt hydrate],neuronal differentiation score,ReNCell VM [1]; library: LOPAC,inactive: 0
same,dopaminergic neuron differentiation score,ReNCell VM [2]; library: LOPAC,inactive: 0
CCc1nc(N)nc(N)c1-c1ccc(Cl)cc1 [Pyrimethamine],neuronal differentiation score,ReNCell VM [1]; library: Prestwick,inactive: 0
same,dopaminergic neuron differentiation score,ReNCell VM [2]; library: Prestwick,inactive: 0
Cn1c(=O)c2c(ncn2CC(O)CO)n(C)c1=O (configuration not stated) [Diprophylline],neuronal differentiation score,ReNCell VM [1]; library: Prestwick,inactive: 0
same,dopaminergic neuron differentiation score,ReNCell VM [2]; library: Prestwick,inactive: 0
CC(C)NCC(O)c1cc(O)cc(O)c1 (configuration not stated),neuronal differentiation score,ReNCell VM [1]; library: Spectrum,inactive: 0
same,dopaminergic neuron differentiation score,ReNCell VM [2]; library: Spectrum,inactive: 0
CN(C)CCCN1c2ccccc2Sc2ccccc21,neuronal differentiation score,ReNCell VM [1]; library: Spectrum,inactive: 0
same,dopaminergic neuron differentiation score,ReNCell VM [2]; library: Spectrum,inactive: 0
CC(C)[C@H](NS(=O)(=O)c1ccc(-c2ccc(Br)cc2)cc1)C(=O)O,neuronal differentiation score,ReNCell VM [1]; library: Tocriscreen,inactive: 0
same,dopaminergic neuron differentiation score,ReNCell VM [2]; library: Tocriscreen,inactive: 0
CCOC(=O)NNc1nncc2ccccc12 [Todralazine hydrochloride],neuronal differentiation score,ReNCell VM [1]; library: Prestwick,inactive: 0
same,dopaminergic neuron differentiation score,ReNCell VM [2]; library: Prestwick,inactive: 0
CC1CNc2c(cccc2S(=O)(=O)N[C@@H](CCCNC(=N)N)C(=O)N2CC[C@@H](C)C[C@@H]2C(=O)O)C1 (some centres not stated) [Argatroban],neuronal differentiation score,ReNCell VM [1]; library: Prestwick,inactive: 0
same,dopaminergic neuron differentiation score,ReNCell VM [2]; library: Prestwick,inactive: 0
c1ccc(CC2=NCCN2)cc1 [Tolazoline hydrochloride],neuronal differentiation score,ReNCell VM [1]; library: Prestwick,active: 3
same,dopaminergic neuron differentiation score,ReNCell VM [2]; library: Prestwick,inactive: 0

# 14 entries from above, tab-delimited.
compound	measurement	setting	value
O=C(O)c1ccccc1Cc1c(Oc2ccccc2)oc2cc(O)ccc2c1=O [7-hydroxy-2-phenoxy-3-(2-carboxybenzyl)chromone]	neuronal differentiation score	ReNCell VM [1]; library: Natural	inactive: 0
CCc1cc(C(C)=O)c(O)cc1OCCCCCC(C)(C)c1nn[nH]n1	neuronal differentiation score	ReNCell VM [1]; library: Tocriscreen	inactive: 0
same	dopaminergic neuron differentiation score	ReNCell VM [2]; library: Tocriscreen	inactive: 0
COc1ccc2cc(C(C)C(=O)O)ccc2c1 (configuration not stated)	dopaminergic neuron differentiation score	ReNCell VM [2]; library: Spectrum	inactive: 0
COc1ccccc1Oc1coc2cc(O)ccc2c1=O [7-hydroxy-3-(2-methoxy-phenoxy)-chromen-4-one]	dopaminergic neuron differentiation score	ReNCell VM [2]; library: Natural	inactive: 0
Cc1cc2c(s1)Nc1ccccc1N=C2N1CCN(C)CC1	neuronal differentiation score	ReNCell VM [1]; library: Spectrum	inactive: 1
Nc1nc(=O)c2[nH]c(=O)cnc2[nH]1	neuronal differentiation score	ReNCell VM [1]; library: Spectrum	inactive: 0
same	dopaminergic neuron differentiation score	ReNCell VM [2]; library: Spectrum	inactive: 0
O=c1cc(-c2ccccc2)oc2c(O)c(O)ccc12	dopaminergic neuron differentiation score	ReNCell VM [2]; library: Spectrum	inactive: 0
O=S(=O)(NCCNC/C=C/c1ccc(Br)cc1)c1cccc2cnccc12 [H 89 dihydrochloride]	neuronal differentiation score	ReNCell VM [1]; library: Tocriscreen	inactive: 0
COc1cc(C(=O)NS(=O)(=O)c2ccccc2C)ccc1Cc1cn(C)c2ccc(NC(=O)OC3CCCC3)cc12 [Zafirlukast]	neuronal differentiation score	ReNCell VM [1]; library: Prestwick	inactive: 0
Cc1nc(N=Nc2cc([N+](=O)[O-])ccc2Cl)c(COP(=O)(O)O)c(C=O)c1O [MRS 2211 sodium salt hydrate]	neuronal differentiation score	ReNCell VM [1]; library: LOPAC	inactive: 0
CC(C)[C@H](NS(=O)(=O)c1ccc(-c2ccc(Br)cc2)cc1)C(=O)O	dopaminergic neuron differentiation score	ReNCell VM [2]; library: Tocriscreen	inactive: 0
c1ccc(CC2=NCCN2)cc1 [Tolazoline hydrochloride]	dopaminergic neuron differentiation score	ReNCell VM [2]; library: Prestwick	inactive: 0
